Source: patent US20230356105A1, “TETRAAZADODECANE BASED CHELATING AGENTS FOR SEPARATION OF RARE EARTH ELEMENTS AND METHOD THEREFOR” (Ustav Organicke Chemie a Biochemie AV CR V.V.I., priority 2020, published 2023)
Values joined by “and” are separate entries in the source; they are usually repeats but may differ in a detail not shown here. Equal values may be shown once.

What was measured:
Type in all cases: physicochemical
[1] = Separation of binary mixture of rare-earth metals by precipitation using L1, MOPS pH 8.5 (Example 8); settings: supernatant
Experimental: Analogous to Example 7), the well plate was then centrifuged and concentrations of the metals were determined using ICP-OES. The resulting concentrations of both metals in the supernatants and their ratios are summarized in […]

[2] = Separation of binary mixture of rare-earth metals by precipitation from solution using L1 (Example 7); settings: supernatant
Experimental: Two series of reaction mixtures were prepared, where one rare-earth metal was held constant (Gd or Lu) while the other was a variable rare-earth metal element (except Pm). […] The well plate was sealed with transparent adhesive tape to prevent evaporation and was anchored to a shaker. The well-plate was shaken for 5 days at room temperature at 900 rpm.

[3] = Separation of industrially relevant binary mixtures by precipitation using L1, L2 and L3 (Example 10); settings: supernatant
Experimental: Analogous to Example 7), three sets of reaction mixtures with two metals and either compound L1, L2, or L3 were prepared in a 96-well plate with the following differences: each well was equipped with one PTFE-coated magnetic stir bar, the well plate was sealed with a silicon cover, and the reaction mixtures were stirred on a magnetic stirrer for 2 days at room temperature. Analogous to Example 7), the well plate was then centrifuged and concentrations of the metals were determined using ICP-OES. […] It is evident from the results that certain degrees of enrichment are achieved for very different combinations of metals, and that ligands L1, L2, and L3 have different selectivities for given combinations of metals.

[4] = Separation of Y/Tb mixture by repeated precipitation using L2 (Example 14)
Experimental: The experiment was conducted according to Example 11) with 9 identical reaction mixtures containing Y, Tb, and compound L2. The experimental procedure was identical to that of Example 11). The resulting absolute concentrations of both metals in the supernatants and precipitates, as well as calculated values of separation factor Y/Tb according to the formula from Example 11), are summarized in Table 8. The average separation factor value was 3.34.

[5] = Separation of binary mixture of rare-earth metals by precipitation using L6 (Example 9); settings: supernatant
[6] = Use of additives to improve separation of Nd/Dy mixture by precipitation with L5 (Example 18); settings: 11 mM L5
Experimental: Stock solutions were pipetted into plastic 1×1 cm cuvettes to prepare reaction mixtures with concentrations as follows: • 1. […] 5 mM NdCl3 • 3. 5 mM DyCl3 • 4. 500 mM MOPS pH=7 • 5. the additive of interest, in a variable concentration; if possible, stock solutions were prepared from Na^+ salt forms of the compound; if not, the stock solutions were titrated by NaOH/HCl to pH=7 prior to addition (see Table 12 for additives and concentrations)
These aqueous reaction mixtures, each prepared to a total volume of 2.0 mL with the addition of water as necessary, were mixed by the use of a PTFE-coated stir bar on a magnetic stirrer. The cuvettes were sealed with transparent tape to prevent evaporation overnight. The reaction mixtures were stirred for 18 hours, at which point 500 μL aliquots of each reaction mixture were transferred into plastic 2 mL Eppendorf tubes and centrifuged. The supernatants were carefully pipetted out and transferred to a new set of tubes. The precipitate was dissolved by addition of 500 μL 1M HCl. The absolute concentration of Nd and Dy in each supernatant and precipitate was determined by ICP-OES.

`O=C(O)CN1CCN(CC(=O)O)CCN(Cc2ccccc2)CCN(CC(=O)O)CC1` [L1, 2,2′,2″-(10-benzyl-1,4,7,10-tetraazacyclododecane-1,4,7-triyl)triacetic Acid] gave an M1/Tm ([1]; M1=Ce) of 0.21, an M1/Tm ([1]; M1=Dy) of 0.15 and an M1/Tm ([1]; M1=Er) of 0.82. The M1/Tm ([1]; M1=Eu) was 0.12, the M1/Tm ([1]; M1=Gd) was 0.14 and the M1/Tm ([1]; M1=Ho) was 0.22. For the same compound, the M1/Tm ([1]; M1=La) was 0.25, the M1/Tm ([1]; M1=Lu) was 1.60 and the M1/Tm ([1]; M1=Nd) was 0.17. For the same compound, the M1/Tm ([1]; M1=Pr) was 0.15, the M1/Tm ([1]; M1=Sc) was 1.14 and the M1/Tm ([1]; M1=Sm) was 0.10. The M1/Tm ([1]; M1=Tb) was 0.10, the M1/Tm ([1]; M1=Tm) was 1.00 and the M1/Tm ([1]; M1=Y) was 0.20. It also gave an M1/Tm ([1]; M1=Yb) of 1.19, an M1/Gd ([2]; M1=Ce) of 2.34 and an M1/Lu ([2]; M1=Ce) of 1.00. For the same compound, the M1/Gd ([2]; M1=Dy) was 1.76, the M1/Lu ([2]; M1=Dy) was 1.00 and the M1/Gd ([2]; M1=Er) was 1.11. For the same compound, the M1/Lu ([2]; M1=Er) was 1.05, the M1/Gd ([2]; M1=Eu) was 1.11 and the M1/Lu ([2]; M1=Eu) was 0.91. The M1/Gd ([2]; M1=Gd) was 1.00, the M1/Lu ([2]; M1=Gd) was 0.08 and the M1/Gd ([2]; M1=Ho) was 2.38. For the same compound, the M1/Lu ([2]; M1=Ho) was 0.96, the M1/Gd ([2]; M1=La) was 3.99 and the M1/Lu ([2]; M1=La) was 0.96. For the same compound, the M1/Gd ([2]; M1=Lu) was 16.94, the M1/Lu ([2]; M1=Lu) was 1.00 and the M1/Gd ([2]; M1=Nd) was 1.47. It also gave an M1/Lu ([2]; M1=Nd) of 0.11, an M1/Gd ([2]; M1=Pr) of 1.66 and an M1/Lu ([2]; M1=Pr) of 0.98. The M1/Gd ([2]; M1=Sc) was 19.94, the M1/Lu ([2]; M1=Sc) was 1.12 and the M1/Gd ([2]; M1=Sm) was 1.08. The M1/Lu ([2]; M1=Sm) was 0.07, the M1/Gd ([2]; M1=Tb) was 1.45 and the M1/Lu ([2]; M1=Tb) was 1.03. For the same compound, the M1/Gd ([2]; M1=Tm) was 11.10, the M1/Lu ([2]; M1=Tm) was 1.01 and the M1/Gd ([2]; M1=Y) was 2.57. It also gave an M1/Lu ([2]; M1=Y) of 1.01, an M1/Gd ([2]; M1=Yb) of 15.12 and an M1/Lu ([2]; M1=Yb) of 1.02. The M1/M2 ([3]; M1/M2=Eu/Y) was 0.45, the M1/M2 ([3]; M1/M2=La/Ce) was 1.55 and the M1/M2 ([3]; M1/M2=Nd/Ce) was 10.45. It also gave an M1/M2 ([3]; M1/M2=Nd/Dy) of 0.68, an M1/M2 ([3]; M1/M2=Nd/La) of 0.32 and an M1/M2 ([3]; M1/M2=Nd/Pr) of 0.93. For the same compound, the M1/M2 ([3]; M1/M2=Nd/Tb) was 2.29, the M1/M2 ([3]; M1/M2=Pr/Ce) was 0.65 and the M1/M2 ([3]; M1/M2=Pr/Dy) was 1.38. For the same compound, the M1/M2 ([3]; M1/M2=Pr/La) was 0.43, the M1/M2 ([3]; M1/M2=Tb/Dy) was 0.76 and the M1/M2 ([3]; M1/M2=Tb/Eu) was 1.30. The M1/M2 ([3]; M1/M2=Tb/Pr) was 0.55 and the M1/M2 ([3]; M1/M2=Tb/Y) was 0.40.

With `O=C(O)CN1CCNCCN(CC(=O)O)CCN(Cc2cc([N+](=O)[O-])ccc2O)CC1` [L2, 2,2′(4-(2-hydroxy-5-nitrobenzyl)-1,4,7,10-tetraazacyclododecane-1,7-diyl)Diacetic Acid] the “average separation factor value Y/Tb” value ([4]; all samples) was 3.34, the “Separation factor Y/Tb” value ([4]; group A, 1st precipitation) was 3.69 and 3.52 and 3.30 and the “Separation factor Y/Tb” value ([4]; group B, 2nd precipitation) was 3.23 and 2.64. For the same compound, the “Separation factor Y/Tb” value ([4]; group C, 3rd precipitation) was 4.79 and 2.73, the M1/M2 ([3]; M1/M2=Eu/Y) was 0.48 and the M1/M2 ([3]; M1/M2=La/Ce) was 1.11. The M1/M2 ([3]; M1/M2=Nd/Ce) was 0.55, the M1/M2 ([3]; M1/M2=Nd/Dy) was 0.89 and the M1/M2 ([3]; M1/M2=Nd/La) was 2.05. The M1/M2 ([3]; M1/M2=Nd/Pr) was 0.98, the M1/M2 ([3]; M1/M2=Nd/Tb) was 1.07 and the M1/M2 ([3]; M1/M2=Pr/Ce) was 0.95. For the same compound, the M1/M2 ([3]; M1/M2=Pr/Dy) was 1.00, the M1/M2 ([3]; M1/M2=Pr/La) was 1.06 and the M1/M2 ([3]; M1/M2=Tb/Dy) was 0.39. The M1/M2 ([3]; M1/M2=Tb/Eu) was 1.24, the M1/M2 ([3]; M1/M2=Tb/Pr) was 0.90 and the M1/M2 ([3]; M1/M2=Tb/Y) was 0.57.

Work on `O=C(O)CN1CCNCCN(CC(=O)O)CCN(Cc2ccc(C(=O)O)cc2)CC1` [L3, 2,2′-(4-(4-carboxybenzyl)-1,4,7,10-tetraazacyklododekane-1,7-diyl)Diacetic Acid] yielded an M1/M2 ([3]; M1/M2=Eu/Y) of 0.21, an M1/M2 ([3]; M1/M2=La/Ce) of 3.08 and an M1/M2 ([3]; M1/M2=Nd/Ce) of 0.00. For the same compound, the M1/M2 ([3]; M1/M2=Nd/Dy) was 0.00, the M1/M2 ([3]; M1/M2=Nd/La) was 0.00 and the M1/M2 ([3]; M1/M2=Nd/Pr) was 0.00. For the same compound, the M1/M2 ([3]; M1/M2=Nd/Tb) was 1.00, the M1/M2 ([3]; M1/M2=Pr/Ce) was 2.86 and the M1/M2 ([3]; M1/M2=Pr/Dy) was 0.53. It also gave an M1/M2 ([3]; M1/M2=Pr/La) of 0.14, an M1/M2 ([3]; M1/M2=Tb/Dy) of 0.37 and an M1/M2 ([3]; M1/M2=Tb/Eu) of 1.06. It also gave an M1/M2 ([3]; M1/M2=Tb/Pr) of 0.83 and an M1/M2 ([3]; M1/M2=Tb/Y) of 0.23.

In the case of `O=C(O)CN1CCN(CC(=O)O)CCN(Cc2ccc(-c3ccccc3)cc2)CCN(CC(=O)O)CC1` [L6, 2,2′,2″-(10-([1,1′-biphenyl]-4-ylmethyl)-1,4,7,10-tetraazacyclododecane-1,4,7-triyl)triacetic acid], the M1/Nd ([5]; M1=Ce) is reported as 1.07, the M1/Nd ([5]; M1=Dy) is reported as 3.41 and the M1/Nd ([5]; M1=Er) is reported as 2.89. For the same compound, the M1/Nd ([5]; M1=Eu) was 1.26, the M1/Nd ([5]; M1=Gd) was 1.18 and the M1/Nd ([5]; M1=Ho) was 3.14. For the same compound, the M1/Nd ([5]; M1=La) was 1.02, the M1/Nd ([5]; M1=Lu) was 3.84 and the M1/Nd ([5]; M1=Nd) was 1.00. The M1/Nd ([5]; M1=Pr) was 0.94, the M1/Nd ([5]; M1=Sc) was 4.06 and the M1/Nd ([5]; M1=Sm) was 1.06. The M1/Nd ([5]; M1=Tb) was 2.40, the M1/Nd ([5]; M1=Tm) was 3.90 and the M1/Nd ([5]; M1=Y) was 1.09. It also gave an M1/Nd ([5]; M1=Yb) of 4.53.

With `CC(=O)O` [acetate] the “Separation factor (Dy/Nd)” value ([6]; additive 50 mM) was 19.0, the “Separation factor (Dy/Nd)” value ([6]; additive 100 mM) was 35.3 and the “Separation factor (Dy/Nd)” value ([6]; additive 250 mM) was 14.4. The “Separation factor (Dy/Nd)” value ([6]; additive 500 mM) was 1.1.

For `O=C(O)c1ccccc1` [benzoic acid], the “Separation factor (Dy/Nd)” value ([6]; additive 20 mM) was 10.8, the “Separation factor (Dy/Nd)” value ([6]; additive 50 mM) was 72.1 and the “Separation factor (Dy/Nd)” value ([6]; additive 100 mM) was 38.9. The “Separation factor (Dy/Nd)” value ([6]; additive 150 mM) was 24.6 and the “Separation factor (Dy/Nd)” value ([6]; additive 200 mM) was 4.6.

In the case of `Cl` [chloride], the “Separation factor (Dy/Nd)” value ([6]; additive 100 mM) is reported as 1.2, the “Separation factor (Dy/Nd)” value ([6]; additive 200 mM) is reported as 1.8 and the “Separation factor (Dy/Nd)” value ([6]; additive 500 mM) is reported as 2.2. For the same compound, the “Separation factor (Dy/Nd)” value ([6]; additive 1000 mM) was 2.2.

In the case of `O=C(O)CC(O)(CC(=O)O)C(=O)O` [citrate], the “Separation factor (Dy/Nd)” value ([6]; additive 1 mM) is reported as 2.9, the “Separation factor (Dy/Nd)” value ([6]; additive 5 mM) is reported as 8.6 and the “Separation factor (Dy/Nd)” value ([6]; additive 10 mM) is reported as 17.2. The “Separation factor (Dy/Nd)” value ([6]; additive 20 mM) was 18.1.

In the case of `O=C(O)c1cccc(C(=O)O)n1` [dipicolinic acid], the “Separation factor (Dy/Nd)” value ([6]; additive 20 mM) is reported as 14.3.

In the case of `F` [fluoride], the “Separation factor (Dy/Nd)” value ([6]; additive 5 mM) is reported as 11.6, the “Separation factor (Dy/Nd)” value ([6]; additive 10 mM) is reported as 20.4 and the “Separation factor (Dy/Nd)” value ([6]; additive 15 mM) is reported as 13.9.

With `O=CO` [formate] the “Separation factor (Dy/Nd)” value ([6]; additive 50 mM) was 8.5, the “Separation factor (Dy/Nd)” value ([6]; additive 100 mM) was 3.2 and the “Separation factor (Dy/Nd)” value ([6]; additive 250 mM) was 24.8. For the same compound, the “Separation factor (Dy/Nd)” value ([6]; additive 500 mM) was 27.2.
